# Test: general procedure: Boc solid-phase peptide synthesis; 4-methylbenzhydryl amine resin; BOP reagent, DIEA
# Conditions: whole synthesis, analytical RP HPLC
substance,measurement,value
"-Gly-Glu-Leu-Ala-Glu-Gln-Lys-Leu-Glu-Gln-Ala-Leu-Gln-Lys-Leu-Ala (GELAEQKLEQALQKLA; N-terminal 5-carboxyl-2,2'-bipyridine ligand)",crude HPLC purity,90% pure
same,final HPLC purity,>99% pure

# From patent publication US5408036A (The Scripps Research Institute, priority 1993, dated 1995)
